No constants are given. Whether binding was seen depends on the method and setting. In cells and extracts the contact can be indirect. A yes stands for co-enrichment or nearness to the bait. Other partners may have been found.
T1: Macrophage migration inhibitory factor (MIF) (human (endogenous in RCTE)) (UniProt P14174)
T1 sequence: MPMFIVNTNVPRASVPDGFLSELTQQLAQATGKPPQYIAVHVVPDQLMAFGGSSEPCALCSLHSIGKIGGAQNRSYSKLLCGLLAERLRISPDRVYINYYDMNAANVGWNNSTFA

B1: PRKD2 (enzyme, UniProt Q9BZL6 1-878)
chain: MATAPSYPAGLPGSPGPGSPPPPGGLELQSPPPLLPQIPAPGSGVSFHIQIGLTREFVLLPAASELAHVKQLACSIVDQKFPECGFYGLYDKILLFKHDPTSANLLQLVRSSGDIQEGDLVEVVLSASATFEDFQIRPHALTVHSYRAPAFCDHCGEMLFGLVRQGLKCDGCGLNYHKRCAFSIPNNCSGARKRRLSSTSLASGHSVRLGTSESLPCTAEELSRSTTELLPRRPPSSSSSSSASSYTGRPIELDKMLLSKVKVPHTFLIHSYTRPTVCQACKKLLKGLFRQGLQCKDCKFNCHKRCATRVPNDCLGEALINGDVPMEEATDFSEADKSALMDESEDSGVIPGSHSENALHASEEEEGEGGKAQSSLGYIPLMRVVQSVRHTTRKSSTTLREGWVVHYSNKDTLRKRHYWRLDCKCITLFQNNTTNRYYKEIPLSEILTVESAQNFSLVPPGTNPHCFEIVTANATYFVGEMPGGTPGGPSGQGAEAARGWETAIRQALMPVILQDAPSAPGHAPHRQASLSISVSNSQIQENVDIATVYQIFPDEVLGSGQFGVVYGGKHRKTGRDVAVKVIDKLRFPTKQESQLRNEVAILQSLRHPGIVNLECMFETPEKVFVVMEKLHGDMLEMILSSEKGRLPERLTKFLITQILVALRHLHFKNIVHCDLKPENVLLASADPFPQVKLCDFGFARIIGEKSFRRSVVGTPAYLAPEVLLNQGYNRSLDMWSVGVIMYVSLSGTFPFNEDEDINDQIQNAAFMYPASPWSHISAGAIDLINNLLQVKMRKRYSVDKSLSHPWLQEYQTWLDLRELEGKMGERYITHESDDARWEQFAAEHPLPGSGLPTDRDLGGACPPQDHDMQGLAERISVL
B2: phosphatidylinositol-5-phosphate 4-kinase type 2 alpha (PIP4K2a) (enzyme, UniProt P48426 1-406)
chain: MATPGNLGSSVLASKTKTKKKHFVAQKVKLFRASDPLLSVLMWGVNHSINELSHVQIPVMLMPDDFKAYSKIKVDNHLFNKENMPSHFKFKEYCPMVFRNLRERFGIDDQDFQNSLTRSAPLPNDSQARSGARFHTSYDKRYIIKTITSEDVAEMHNILKKYHQYIVECHGITLLPQFLGMYRLNVDGVEIYVIVTRNVFSHRLSVYRKYDLKGSTVAREASDKEKAKELPTLKDNDFINEGQKIYIDDNNKKVFLEKLKKDVEFLAQLKLMDYSLLVGIHDVERAEQEEVECEENDGEEEGESDGTHPVGTPPDSPGNTLNSSPPLAPGEFDPNIDVYGIKCHENSPRKEVYFMAIIDILTHYDAKKKAAHAAKTVKHGAGAEISTVNPEQYSKRFLDFIGHILT

Experiments:
[1] = biological target: T1, Macrophage migration inhibitory factor (MIF) (human (endogenous in RCTE)); assay: peptide or protein array + affinity purification with mass spectrometry; hits named jointly for the HuProt protein chip screen and the MIF IP-MS screen; which screen found which kinase is not told
[2] = biological target: T1, Macrophage migration inhibitory factor (MIF) (human (endogenous in RCTE)); assay: affinity purification with mass spectrometry; RCTE cell lysates immunoprecipitated with MIF antibody, SDS-PAGE, in-gel tryptic digestion, LC-MS/MS

Row | Binder | binding [1] | binding [2]
1 | B1 | binds | 
2 | B2 |  | binds
